PubChem BioAssay AID652272 – Drosophila RNAi Screening Center, 2013
Screen: 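Finding fly genes that regulate Hedgehog signal transduction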 (primary screen). Cells: Drosophila clone 8 (Cl8) cells. Reagents: long dsRNA against Drosophila genes. Measurement: 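Firefly light from a Hedgehog-responsive ptc promoter reporter and Renilla reference light, both read on a plate reader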. Direction: firefly Hh reporter signal: higher = more ptc reporter light; Renilla reference signal: higher = more Renilla control light. Rule for the call: 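Called a hit if the two-replicate mean z-score lies below -2 or above +3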. Meaning of the calls: active = hit: reporter lowered or raised; inactive = not a hit.
In all, the deposit lists about 21,000 reagents; below is a random part of those that have a named target and a result. Of all reagents, 503 (2.4%) were called active. 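Raw plate light values, not normalised; calls rest on replicate z-scores that were not deposited; hits include reporter decreases as well as increases.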 Not given: the amount of reagent, the time to read-out.

Silencing of Flo2 (Flotillin 2) [DRSC19062] gave: firefly Hh reporter signal, replicate 1 = 6.77e5; firefly Hh reporter signal, replicate 2 = 2.53e5; Renilla reference signal, replicate 1 = 42149; Renilla reference signal, replicate 2 = 6272; inactive. With knock-down of Flo2 (Flotillin 2) [DRSC20244], the screen gave firefly Hh reporter signal, replicate 1 = 89754; firefly Hh reporter signal, replicate 2 = 2.19e5; Renilla reference signal, replicate 1 = 2448; Renilla reference signal, replicate 2 = 11458; inactive. For eIF4EHP [DRSC13653], the entry reads firefly Hh reporter signal, replicate 1 = 56028; firefly Hh reporter signal, replicate 2 = 2.43e5; Renilla reference signal, replicate 1 = 14481; Renilla reference signal, replicate 2 = 6378; inactive. Silencing of eIF4EHP [DRSC14265] came out at: firefly Hh reporter signal, replicate 1 = 1.12e5; firefly Hh reporter signal, replicate 2 = 63162; Renilla reference signal, replicate 1 = 4630; Renilla reference signal, replicate 2 = 2698; inactive. After knock-down of Pvf1 (PDGF- and VEGF-related factor 1) [DRSC20024], the screen gave firefly Hh reporter signal, replicate 1 = 1.45e5; firefly Hh reporter signal, replicate 2 = 1.12e5; Renilla reference signal, replicate 1 = 3351; Renilla reference signal, replicate 2 = 2776; inactive. Depletion of CG14490 [DRSC06461] resulted in: firefly Hh reporter signal, replicate 1 = 66294; firefly Hh reporter signal, replicate 2 = 64456; Renilla reference signal, replicate 1 = 1623; Renilla reference signal, replicate 2 = 4389; inactive.

With knock-down of Ankle2 [DRSC20105], the screen gave firefly Hh reporter signal, replicate 1 = 1.75e5; firefly Hh reporter signal, replicate 2 = 1.39e5; Renilla reference signal, replicate 1 = 3612; Renilla reference signal, replicate 2 = 3092; inactive. Ankle2 [DRSC20106] gave firefly Hh reporter signal, replicate 1 = 79704; firefly Hh reporter signal, replicate 2 = 4.04e5; Renilla reference signal, replicate 1 = 2080; Renilla reference signal, replicate 2 = 14122; inactive. Silencing of Ipp (Inositol polyphosphate 1-phosphatase) [DRSC16718] came out at: firefly Hh reporter signal, replicate 1 = 89585; firefly Hh reporter signal, replicate 2 = 68896; Renilla reference signal, replicate 1 = 1078; Renilla reference signal, replicate 2 = 1395; inactive. Depletion of mol (moladietz) [DRSC01431] gave: firefly Hh reporter signal, replicate 1 = 69549; firefly Hh reporter signal, replicate 2 = 5.33e5; firefly Hh reporter signal, replicate 3 = 71866; Renilla reference signal, replicate 1 = 2678; Renilla reference signal, replicate 2 = 3308; active. With knock-down of mol (moladietz) [DRSC01912] the results were firefly Hh reporter signal, replicate 1 = 91312; firefly Hh reporter signal, replicate 2 = 1.01e5; Renilla reference signal, replicate 1 = 3981; Renilla reference signal, replicate 2 = 3928; inactive. mol (moladietz) [DRSC02479] showed firefly Hh reporter signal, replicate 1 = 1.41e5; firefly Hh reporter signal, replicate 2 = 91943; Renilla reference signal, replicate 1 = 3913; Renilla reference signal, replicate 2 = 8171; inactive.

Just “Renilla reference signal, replicate 2” (2 entries from above):
Pvf1 (PDGF- and VEGF-related factor 1) [DRSC20024] = 2776
CG14490 [DRSC06461] = 4389

Further entries:
For CG15554 [DRSC15092], the values are firefly Hh reporter signal, replicate 1 = 1.20e5; firefly Hh reporter signal, replicate 2 = 1.33e5; Renilla reference signal, replicate 1 = 4544; Renilla reference signal, replicate 2 = 3912; inactive. CG12237 [DRSC19449] showed firefly Hh reporter signal, replicate 1 = 1.54e5; firefly Hh reporter signal, replicate 2 = 7.92e5; firefly Hh reporter signal, replicate 3 = 1.13e5; Renilla reference signal, replicate 1 = 3573; Renilla reference signal, replicate 2 = 41344; inactive. Silencing of CrebA (Cyclic-AMP response element binding protein A) [DRSC11122] came out at: firefly Hh reporter signal, replicate 1 = 1.08e5; firefly Hh reporter signal, replicate 2 = 62328; Renilla reference signal, replicate 1 = 3778; Renilla reference signal, replicate 2 = 2531; inactive. mrva (minerva) [DRSC11009] scored firefly Hh reporter signal, replicate 1 = 1.41e5; firefly Hh reporter signal, replicate 2 = 6.73e5; firefly Hh reporter signal, replicate 3 = 1.16e5; Renilla reference signal, replicate 1 = 5756; Renilla reference signal, replicate 2 = 38198; inactive. Knock-down of CG13315 [DRSC09986] resulted in: firefly Hh reporter signal, replicate 1 = 52020; firefly Hh reporter signal, replicate 2 = 55158; Renilla reference signal, replicate 1 = 2819; Renilla reference signal, replicate 2 = 1449; inactive. With knock-down of Cyp4p1 (Cytochrome P450 4p1) [DRSC07372] the results were firefly Hh reporter signal, replicate 1 = 93620; firefly Hh reporter signal, replicate 2 = 82049; Renilla reference signal, replicate 1 = 2016; Renilla reference signal, replicate 2 = 7220; inactive.

Helz (Helicase with zinc finger) [DRSC11072] scored firefly Hh reporter signal, replicate 1 = 94700; firefly Hh reporter signal, replicate 2 = 54379; Renilla reference signal, replicate 1 = 3872; Renilla reference signal, replicate 2 = 2518; inactive. Knock-down of dila (dilatory) [DRSC06607] came out at: firefly Hh reporter signal, replicate 1 = 1.69e5; firefly Hh reporter signal, replicate 2 = 63705; Renilla reference signal, replicate 1 = 3209; Renilla reference signal, replicate 2 = 4389; inactive. With knock-down of CG15047 [DRSC19623], the record shows firefly Hh reporter signal, replicate 1 = 1.63e5; firefly Hh reporter signal, replicate 2 = 8.34e5; firefly Hh reporter signal, replicate 3 = 3.65e5; Renilla reference signal, replicate 1 = 3584; Renilla reference signal, replicate 2 = 7531; inactive.
